# Measured values reported in PubChem BioAssay AID540256 (National Center for Advancing Translational Sciences (NCATS), 2011).
# “And” between values parts separate entries of the source, which are not always exact repeats. Identical values can stand only once. The whole screen tested about 300,000 compounds, of which about 3,700 (1.2%) were called active. The inconclusive results got no clear call from the source; some entries with a clear call stand among them for comparison. Calls follow the shape of the full dose curve; tested in HEK293 cells. A potency beside an inconclusive call is a rough fit, not a confirmed value.
# Assay: qHTS for Inhibitors of binding or entry into cells for Lassa Virus; also: nearly all actives have a fitted effect of over 50% in size
# Conditions: Lassa virus pseudotype entry inhibition, cell reporter; activity change, negative = inhibition: at 37.9 µM (top of the series) unless noted
# % is scaled to controls: 0 for no effect and ±100 for the full control effect; potency is read from the fitted curve at half-maximal effect.
Structure (SMILES),Potency,"activity change, negative = inhibition"
COc1ccc(-c2c3c(=O)n(C)c(=O)n(C)c3c3c(-c4cccc(C)c4)nc4ccccc4n23)cc1,"inconclusive: 6.31 µM [inhibitor, single point]",–
COC(=O)C1=C(C(=O)OC)[C@@H]2N(C)c3ccccc3[C@@]23C[C@@H](CO)N(C(=O)Nc2ccc(C(F)(F)F)cc2)C3=N1,"inconclusive: 1.06 µM [inhibitor, partial curve, poor fit]",–
O=C(Nc1ccc(S(=O)(=O)N2CCOCC2)cc1)C1CCN(S(=O)(=O)c2ccc(F)cc2)CC1,–,inactive: -17%
O=C(NN=C1CCCCC1)c1cc(-c2ccccc2)n[nH]1,"inconclusive: 7.08 µM [activator, partial curve, poor fit]",–
N#C/C(=C/c1ccc(N2CCCC2)c([N+](=O)[O-])c1)c1nc2ccccc2[nH]1,–,inactive: 7.13%
Cc1cccc(Nc2nnc(-c3ccc(C(=O)N4C[C@H]5C[C@H](C4)c4cccc(=O)n4C5)cc3)c3ccccc23)c1,"inconclusive: 25.1 µM [inhibitor, partial curve, poor fit]",–
Cn1c(=O)c2[nH]c(CCCCCCCCc3nc4ccccc4[nH]3)nc2n(C)c1=O,active: 11.2 µM,–
CC(C)(C)C(=O)Nc1ccc2oc(-c3cc(F)c(F)cc3Cl)nc2c1,"inconclusive: 0.355 µM [activator, single point]",–
Cc1ccc(C)c(CNC(=O)c2ccc3c(c2)nc2n3CCCCC2)c1,active: 7.94 µM,–
Cc1ccc(C)c(CN2CCC(CNC(=O)Nc3ccc(Br)cc3F)CC2)c1,"inconclusive: 35.5 µM [inhibitor, single point] and inconclusive: 11.2 µM [inhibitor, partial curve, poor fit]",–
Cc1ccc(C)n1N1C(=O)/C(=C\c2ccc(Cl)cc2)SC1=S,"inconclusive: 0.562 µM [inhibitor, full curve, poor fit]",–
O=C(O)CSc1nnc(C2COc3ccccc3O2)n1-c1ccccc1 (stereo unspecified),–,inactive: -0.837%
CC(=O)Nc1ccc(/C=N/NC(=O)CNC(=O)c2ccccc2)cc1,"inconclusive: 0.224 µM [activator, full curve, poor fit]",–
CN(C)C(CNC(=O)C1CCCN1C(=O)c1cccs1)c1ccccc1 (stereo unspecified),"inconclusive: 2.24 µM [inhibitor, partial curve, poor fit]",–
CC1CCCCN1CCNC(=O)c1ccc2c(c1)N(Cc1cccc(Cl)c1)C(=O)c1ccccc1S2=O (stereo unspecified),"inconclusive: 11.2 µM [inhibitor, partial curve, poor fit]",–
CC1CCc2c(sc3c2C2=NS(=O)(=O)CCN2C=N3)C1 (stereo unspecified),–,inconclusive: 9.86% [activator]
COC(=O)CC=C[C@@H](C)[C@@H](C=NOC[C@@H](O)[C@H]1O[C@@H]2OC(C)(C)O[C@H]2[C@@H]1O)OC,"inconclusive: 1.5 µM [activator, partial curve, poor fit]",–
O=C(NCCc1cccs1)c1cccs1,–,inactive: 12.3%
O=C(Cn1c(=O)oc2cc(S(=O)(=O)N3CCCCCC3)ccc21)NCc1ccccc1Cl,"inconclusive: 31.6 µM [inhibitor, single point]",–
Cc1ccc(Nc2nc(C)cs2)cc1,"inconclusive: 22.4 µM [inhibitor, single point]",–
COc1ccc(CNC(=O)c2ccc(Br)o2)cc1,"inconclusive: 16.4 µM [inhibitor, partial curve, poor fit]",–
CN(c1ccccc1)c1ccc(/C=N/NC(=O)CC#N)cc1,active: 14.6 µM,–

Structure (SMILES),Potency,"activity change, negative = inhibition"
CCC(=Nc1ccccc1N)c1c(O)[nH]c(=O)[nH]c1=O,"inconclusive: 35.5 µM [inhibitor, single point]",–
Cc1ccc(NC(=O)c2c(F)cccc2Cl)cc1NS(C)(=O)=O,"inconclusive: 0.794 µM [inhibitor, full curve, poor fit]",–
Cc1ccc(-c2cn3nc(-c4ccccc4)c(-c4ccccc4)nc3n2)cc1,"inconclusive: 35.5 µM [inhibitor, single point]",–
CCN(CC)c1ccc(/C=N/NC(=O)CCC(=O)NCc2ccccc2)c(O)c1,"inconclusive: 6.51 µM [inhibitor, partial curve]",–
Cn1ccc2cc3c(cc21)CCN3C(=O)Nc1cccnc1,"inconclusive: 2.59 µM [activator, partial curve]",–
Cc1cccc(-n2c(C)cc(/C=N/NC(=O)c3cccc([N+](=O)[O-])c3C)c2C)c1,"inconclusive: 17.8 µM [inhibitor, partial curve, poor fit]",–
c1ccc(-c2noc(-c3ccc4c(c3)OCO4)n2)nc1,active: 0.411 µM,–
N#Cc1nc(Cc2ccccc2)oc1N1CCC(Cc2ccccc2)CC1,active: 7.08 µM,–
COc1cccc(/C=N/Nc2ncnc3c2ncn3Cc2ccccc2)c1O,active: 7.31 µM,–
Cc1ccc(C)c2c1cc(C)c1nnc(SCC(=O)c3cccs3)n12,–,inactive: 1.05%
CCS(=O)(=O)c1ncc(Cl)c(C(=O)Nc2ccc(C)cc2)n1,"inconclusive: 12.6 µM [inhibitor, partial curve]",–
CCN(CC)c1ccc(-n2c(C)cc(C=O)c2C)cc1,"inconclusive: 5.01 µM [inhibitor, partial curve]",–
CCN(C(=O)c1coc(=O)c(Br)c1)c1ccc2c(c1)OCO2,–,inactive: -24.8%
Cc1nc2c(c(=O)c3ccccc3n2C)c(=O)n1-c1ccccc1,–,inactive: 11.2%
COc1ccc([C@H]2C[C@@H](n3cc(-c4ccc(F)cc4)nn3)[C@H](O)CN2C(=O)C2CCCCC2)cc1,–,inactive: 17.3% [at 46.1 µM]
O=C(CN1CCC(C(=O)c2ccc(Cl)cc2)CC1)Nc1ccc2c(c1)OCCO2,"inconclusive: 23.1 µM [inhibitor, partial curve, poor fit]",–
Cc1ccnc(NC(=O)/C=C/c2ccccc2Cl)c1,"inconclusive: 10 µM [inhibitor, partial curve, poor fit]",–
COc1ccc(CCNC(=O)COc2ccc(N(C)S(=O)(=O)c3ccc(C)cc3)cc2)cc1OC,"inconclusive: 35.5 µM [inhibitor, partial curve, poor fit]",–
CCOc1ccc(/C=N/NC(=O)c2nnn(-c3nonc3N)c2COc2ccc(F)cc2)cc1,"inconclusive: 31.6 µM [inhibitor, single point]",–
Cc1cccc(C(C)C)c1NC(=O)c1cccnc1,"inconclusive: 31.6 µM [activator, single point]",–
O=C1NCN(c2ccccc2)C12CCNCC2,–,inactive: -0.001%
CN(Cc1ccccc1)Cc1nc2c(c(=O)n(C)c(=O)n2C)n1CCc1ccccc1,–,inactive: 14.2%

Structure (SMILES),Potency,"activity change, negative = inhibition"
Cc1ccc(-c2nc3c4ccccc4[nH]c(=O)n3n2)cc1,"inconclusive: 35.5 µM [activator, single point]",–
CCCN1C(=O)/C(=N\OCC(=O)NC23CC4CC(CC(C4)C2)C3)c2ccccc21,"inconclusive: 0.708 µM [inhibitor, full curve]",–
CC(C)N(C[C@@H]1CSCCS(=O)(=O)N1)C(C)C,"inconclusive: 0.995 µM [activator, full curve, poor fit]",–
COCCCNC(=O)c1cc2c(=O)oc3ccc(C)cc3c2s1,–,inactive: -14.1% [at 46.1 µM]
COc1ccc(N2CCN(C(=S)Nc3ccc(F)cc3)CC2)cc1,"inconclusive: 28.2 µM [inhibitor, single point]",–
O=C(CN(Cc1ccccc1)S(=O)(=O)c1ccccc1)N/N=C/c1ccc2c(c1)OCO2,active: 7.3 µM,–
O=C(O)CP(=O)(O)O,"inconclusive: 0.184 µM [activator, full curve, poor fit]",–
CCN(CC(=O)Nc1c(F)cccc1F)C(=O)C1CCN(c2ncnc3sc(C)c(C)c23)CC1,"inconclusive: 17.8 µM [inhibitor, single point]",–
NC1=NC2(CCC(c3ccccc3)CC2)n2c(nc3ccccc32)N1 (stereo unspecified),"inconclusive: 17.8 µM [inhibitor, single point]",–
O=C(c1ccc(-c2ccccc2Cl)o1)N1CCN(c2ccccc2O)CC1,"inconclusive: 22.4 µM [inhibitor, single point]",–
Oc1cc(OCc2ccccc2)ccc1-c1[nH]ncc1-c1ccccc1,–,inactive: -17.9%
O=C(NCCc1nnc2ccc(N3CCCCCC3)nn12)c1ccccc1F,"inconclusive: 12.6 µM [inhibitor, single point]",–
CCOc1ccc(C(=O)NC(=S)N(Cc2ccccc2)Cc2ccccc2)cc1,"inconclusive: 14.6 µM [inhibitor, partial curve, poor fit]",–
CC(=O)Nc1ccc(NC(=O)c2nc(S(=O)(=O)Cc3cccc(C)c3)ncc2Cl)cc1,"inconclusive: 10 µM [inhibitor, partial curve, poor fit]",–
CCn1c2ccccc2c2cc(CN3CCN(Cc4ccccc4Cl)CC3)ccc21,–,inactive: -16.7% [at 46.1 µM]
CCc1ccccc1NC(=O)c1ccc2snnc2c1,"inconclusive: 35.5 µM [inhibitor, single point]",–
Cc1ccc(NC(=O)c2c(C)noc2-c2snnc2C)cc1,"inconclusive: 14.1 µM [inhibitor, partial curve]",–
Cc1ccc(-n2c(C)cc(/C=N/NC(=O)CC3(C)OCCO3)c2C)c(C)c1,–,inactive: -18.8%
O=C(Nc1nc2ccccc2[nH]1)c1ccccc1,"inconclusive: 7.94 µM [inhibitor, partial curve, poor fit]",–
O=C(NCCc1ccccc1)C(=O)NCC1OCCCN1S(=O)(=O)c1cc(F)ccc1F (stereo unspecified),"inconclusive: 14.1 µM [inhibitor, partial curve, poor fit]",–
C/C(=N\NC(=O)C1(C)CC1(Br)Br)c1cccc(NC(=O)C2CCC2)c1 (stereo unspecified),–,inactive: 0.873%
O=C(NC(=S)Nc1cccnc1)c1cc2ccccc2o1,"inconclusive: 22.4 µM [activator, single point]",–
